Test results: publication doi:10.1101/2022.05.06.490860 (bioRxiv, 2022)
No constants are given. Whether binding was seen depends on the method and setting. Binding seen in cells or lysates may run through a third protein. A yes stands for co-enrichment or nearness to the bait. Other partners may have been found. Sequences can lack the tags named with a protein.

T1: 3×FLAG-2×Strep-YjoB (B. subtilis) (UniProt O34703)
T1 sequence: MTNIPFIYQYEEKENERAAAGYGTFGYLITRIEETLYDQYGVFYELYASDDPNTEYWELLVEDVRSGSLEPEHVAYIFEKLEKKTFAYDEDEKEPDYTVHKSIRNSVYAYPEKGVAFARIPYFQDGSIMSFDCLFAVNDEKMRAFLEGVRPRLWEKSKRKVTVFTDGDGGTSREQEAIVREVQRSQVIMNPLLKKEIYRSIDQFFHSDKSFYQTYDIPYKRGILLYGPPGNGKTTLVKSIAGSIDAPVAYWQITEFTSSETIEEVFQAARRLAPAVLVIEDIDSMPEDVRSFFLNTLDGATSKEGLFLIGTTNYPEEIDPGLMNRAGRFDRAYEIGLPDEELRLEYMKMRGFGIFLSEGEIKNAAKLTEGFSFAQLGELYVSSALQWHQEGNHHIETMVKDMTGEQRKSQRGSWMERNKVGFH

B1: SufA (protein, UniProt O32113 1-120)
chain: MSNPVTITEAAALHIKDMMKEHEEENAFLRVGVKGGGCSGLSYGMGFEHEKSESDSVFDQHGITVLVDKESLDIMNGTVIDYKQSMLGGGFTIDNPNAIASCGCGSSFRTATNAGKPEEC
B2: YjoA (protein, UniProt O34334 1-154)
chain: MCQSNQIVSHFLSHRNVTNELAEKISKDHYSYKPAETSMSAEELVKHILTSFHLFANVIKEGNASPFQNKQEETETDLNVLAKTYTEKTVAILEQLTEEQLDREIDLTSAFGRKVTGRALLQLAMEHEIHHKGNLFVYVREMGHTELPFYQQRM
B3: KatA (endogenous, B. subtilis) (enzyme, UniProt P26901 1-483)
chain: MSSNKLTTSWGAPVGDNQNSMTAGSRGPTLIQDVHLLEKLAHFNRERVPERVVHAKGAGAHGYFEVTNDVTKYTKAAFLSEVGKRTPLFIRFSTVAGELGSADTVRDPRGFAVKFYTEEGNYDIVGNNTPVFFIRDAIKFPDFIHTQKRDPKTHLKNPTAVWDFWSLSPESLHQVTILMSDRGIPATLRHMHGFGSHTFKWTNAEGEGVWIKYHFKTEQGVKNLDVNTAAKIAGENPDYHTEDLFNAIENGDYPAWKLYVQIMPLEDANTYRFDPFDVTKVWSQKDYPLIEVGRMVLDRNPENYFAEVEQATFSPGTLVPGIDVSPDKMLQGRLFAYHDAHRYRVGANHQALPINRARNKVNNYQRDGQMRFDDNGGGSVYYEPNSFGGPKESPEDKQAAYPVQGIADSVSYDHYDHYTQAGDLYRLMSEDERTRLVENIVNAMKPVEKEEIKLRQIEHFYKADPEYGKRVAEGLGLPIKKDS
B4: YutI (protein, UniProt O32119 1-111)
chain: MCYNRESNFANQTIDFYCYTEYNGFMTTKGANVMTEVEMKEQVQEVLDKLRPFLLRDGGDCELVDVDEGIVKLRLLGACGSCPSSTITLKAGIERALLEEVPGVVEVEQVF
B5: GapB (NADP+-dependent glyceraldehyde-3 phosphate dehydrogenase) (enzyme, UniProt O34425 1-340)
chain: MKVKVAINGFGRIGRMVFRKAMLDDQIQVVAINASYSAETLAHLIKYDTIHGRYDKEVVAGEDSLIVNGKKVLLLNSRDPKQLPWREYDIDIVVEATGKFNAKDKAMGHIEAGAKKVILTAPGKNEDVTIVMGVNEDQFDAERHVIISNASCTTNCLAPVVKVLDEEFGIESGLMTTVHAYTNDQKNIDNPHKDLRRARACGESIIPTTTGAAKALSLVLPHLKGKLHGLALRVPVPNVSLVDLVVDLKTDVTAEEVNEAFKRAAKTSMYGVLDYSDEPLVSTDYNTNPHSAVIDGLTTMVMEDRKVKVLAWYDNEWGYSCRVVDLIRHVAARMKHPSAV
B6: YwfI (protein, UniProt P39645 1-254)
chain: MSEQQMTNEAAKTLDGWYALHDFRTMDWASWKLLSSDERQSIIHEFTGLLEKWGVAQKEGKGSQTLYSIVGQKADFMLMILRPTMEELNQIELEFNKSRLAEFTIPAYSYVSVVELSNYLASGDGDPYENPHVRARLYPELPESKYVCFYPMDKRRSGNDNWYMLSMEERRNLMRSHGLIGRSYAGKVKQIITGSVGFDDYEWGVTLFSDDVLQFKKLVYEMRFDEVSARYGEFGSFFVGNHLSLDTLPQFLYV
B7: AhpC (protein, UniProt P80239 1-187)
chain: MSLIGKEVLPFEAKAFKNGEFIDVTNEDLKGQWSVFCFYPADFSFVCPTELEDLQEQYAALKELGVEVYSVSTDTHFVHKGWHDSSEKISKITYAMIGDPSQTISRNFDVLDEETGLADRGTFIIDPDGVIQTVEINAGGIGRDASNLVNKVKAAQYVRQNPGEVCPAKWEEGGETLTPSLDLVGKI
B8: SufD (protein, UniProt O32165 1-437)
chain: MTLGTKLSVDQEYLKSFSEKHQEPAWLKNLRLQALEQAEDLPMPKPDKTKITNWNFTNFAKHTVDNEPLSSLEDLTDEVKALIDIENEDKTLYVQRDQTPAHLSLSQELKDKGVIFTDILTAAREHSDLVEKYFMKDGVKVDEHKLTALHAALVNGGAFLYVPKNVQVETPVQAVYVHESNDTALFNHVLIVAEDHSSVTYVENYISTVNPKDAVFNIISEVITGDNASVTYGAVDNLSSGVTTYVNRRGAARGRDSKIEWALGLMNDGDTISENTTNLYGDGTYGDTKTVVVGRGEQTENFTTQIIHFGKASEGYILKHGVMKDSASSIFNGIGKIEHGASKANAEQESRVLMLSEKARGDANPILLIDEDDVTAGHAASVGRVDPIQLYYLMSRGIPKEEAERLVIYGFLAPVVNELPIEGVKKQLVSVIERKVK
B9: TrxA (thioredoxin) (protein, UniProt P14949 1-104)
chain: MAIVKATDQSFSAETSEGVVLADFWAPWCGPCKMIAPVLEELDQEMGDKLKIVKIDVDENQETAGKYGVMSIPTLLVLKDGEVVETSVGFKPKEALQELVNKHL

The molecules below were run against T1, 3×FLAG-2×Strep-YjoB (B. subtilis) (assay: affinity purification with mass spectrometry).

binding | Molecule
binds | YphP
binds | YqiW
binds | B1
binds | B2
binds | B3
binds | B4
binds | B5
binds | B6
binds | B7
binds | B8
binds | B9
